Structures are written as SMILES. The list is a part of this screen's results and no random one: it gathers tests that were run many times, whatever their T/C, doses with no T/C, and many T/C values between a quarter and a half above the control. Further doses and runs are listed elsewhere. T/C gives the treated animals as a percentage of the vehicle group. Some entries give survivors of the animals treated and no T/C: the source files T/C as zero there, which appears to mark a toxic dose or a test without result, not a measured value. Some doses without a T/C left all or most animals alive at the check, yet need not have been tolerated: the source hardly ever lists a survival T/C far under the control, and the zero likely stands for such cases as well. Counts of survivors are from the toxicity check (mostly the fifth day) where no day follows; animals may have died later. Schedule codes are those of the source, taken here to give the interval after Q, in days (D) or hours (H), and the number of doses after X. Some entries hold several experiments; their values stand side by side, smallest first. Some schedules carry Z or #; the key to these is not given. Where survival is the endpoint, the PubChem record calls one and a half times the control and up active, and a quarter to a half above the control has no call in these data; cut-offs in other NCI protocols can differ. Some T/C values are followed by the survivors on the day toxicity was checked, most often the fifth; without a count, all were alive then.

The subject of this assay is L1210 leukemia ip in BDF1 mice, survival T/C. Kind of assay: NCI In Vivo Anticancer Drug Screen. Data for tumor model L1210 Leukemia (intraperitoneal) in B6D2F1 (BDF1) mice. The note with it: T/C endpoint: mean survival time, higher T/C = longer survival.
[1] abbreviates: dose: 400.0 mg/kg/injection, schedule: Q01DX009 (ip), vehicle: saline with Tween-80.
[2] abbreviates: dose: 400.0 mg/kg/injection, schedule: Q04DX002 (ip), vehicle: saline with Tween-80.
Where [3] appears, read: dose: 200.0 mg/kg/injection, schedule: Q01DX009 (ip), vehicle: saline with Tween-80.
The mark [4] stands for this setting: dose: 400.0 mg/kg/injection, schedule: Q01DX009 (ip), vehicle: Klucel (hydroxypropylcellulose) (HPC).
[5] abbreviates: dose: 100.0 mg/kg/injection, schedule: Q04DX003 (ip), vehicle: Klucel (hydroxypropylcellulose) (HPC).
The mark [6] stands for this setting: dose: 200.0 mg/kg/injection, schedule: Q04DX003 (ip), vehicle: Klucel (hydroxypropylcellulose) (HPC).
Setting [7] is: dose: 400.0 mg/kg/injection, schedule: Q04DX003 (ip), vehicle: Klucel (hydroxypropylcellulose) (HPC).
Setting [8] is: dose: 100.0 mg/kg/injection, schedule: Q01DX009 (ip), vehicle: saline with Tween-80.
The mark [9] stands for this setting: dose: 100.0 mg/kg/injection, schedule: Q01DX009 (ip), vehicle: Klucel (hydroxypropylcellulose) (HPC).
[10] abbreviates: dose: 200.0 mg/kg/injection, schedule: Q01DX009 (ip), vehicle: Klucel (hydroxypropylcellulose) (HPC).

For `CC(C)CC(Br)C(=O)NCC(=O)NC(Cc1ccccc1)C(=O)O` (stereo not given), under setting [1], the survivor count is given as 6 of 6.

As to `COc1ccc(CCN)cc1F`, the survivor count (dose: 400.0 mg/kg/injection, schedule: Q04DX002 (ip), vehicle: Klucel (hydroxypropylcellulose) (HPC)) is given as 1 of 3.

Take `C#[C][Sn]([CH2]CCC)([CH2]CCC)[CH2]CCC`: the survivor count is 1 of 6 (dose: 3.12 mg/kg/injection, schedule: Q01DX009 (ip), vehicle: saline with Tween-80); 0 of 6 and 4 of 6 (dose: 6.25 mg/kg/injection, schedule: Q01DX009 (ip), vehicle: saline with Tween-80); 0 of 6 (dose: 12.5 mg/kg/injection, schedule: Q01DX009 (ip), vehicle: saline with Tween-80); 0 of 6 (dose: 25.0 mg/kg/injection, schedule: Q01DX009 (ip), vehicle: saline with Tween-80); 0 of 3 (dose: 25.0 mg/kg/injection, schedule: Q04DX002 (ip), vehicle: saline with Tween-80); 0 of 3 (dose: 50.0 mg/kg/injection, schedule: Q04DX002 (ip), vehicle: saline with Tween-80). The survivor count reads like this: (dose: 100.0 mg/kg/injection, schedule: Q04DX002 (ip), vehicle: saline with Tween-80) 0 of 3; (dose: 200.0 mg/kg/injection, schedule: Q04DX002 (ip), vehicle: saline with Tween-80) 0 of 3; under setting [2], 0 of 3.

For the molecule `O=[N+]([O-])c1cc(C(F)(F)F)cc([N+](=O)[O-])c1N/N=C/c1ccc(F)cc1`, the survivor count under setting [3] was 6 of 6.

On to `CC(=O)c1ccc2c(c1)CCN2`, for which the survivor count under setting [4] is 2 of 6.

As for `O=C(Nc1ccc(Cl)c(C(F)(F)F)c1)Oc1ccccn1`, the survivor count is reported as 0 of 6 under setting [3] and 0 of 6 under setting [1].

For the molecule `CC(=O)OC(C)(C)C1CCC2(C)COC3(C)CC(=O)OC23C1` (stereo not given), the survivor count (dose: 112.0 mg/kg/injection, schedule: Q04DX003 (ip), vehicle: saline) was 0 of 4.

Consider `O=NN(CCCl)C(=O)Nc1ncc([N+](=O)[O-])s1`, for which the T/C (dose: 250.0 mg/kg/injection, schedule: Q01DX001 (ip), vehicle: other) was 129 % of control [9 of 10 alive]. In addition, the survivor count runs as follows: (dose: 375.0 mg/kg/injection, schedule: Q01DX001 (ip), vehicle: other) 6 of 10; (dose: 500.0 mg/kg/injection, schedule: Q01DX001 (ip), vehicle: other) 2 of 10.

On to `CCCCc1c(F)cccc1C(=O)O`, for which the survivor count by setting is: under setting [5], 3 of 6; under setting [6], 0 of 6; under setting [7], 2 of 6.

Take `CCN(C(=O)NC(C)(C)C)c1cccc(C)c1`: the T/C by setting is: (dose: 50.0 mg/kg/injection, schedule: Q01DX009 (ip), vehicle: saline with Tween-80) 94, 97, 98, 106 % of control; under setting [8], 101 and 108 % of control. The survivor count under setting [8] is 1 of 3 and 2 of 6; the survivor count (dose: 200.0 mg/kg/injection, schedule: Q01DX001 (ip), vehicle: saline with Tween-80) is 0 of 3; the survivor count under setting [3] is 0 of 3 and 0 of 6; the survivor count under setting [2] is 3 of 6; the survivor count (dose: 400.0 mg/kg/injection, schedule: Q04DX003 (ip), vehicle: saline with Tween-80) is given as 5 of 6.

Consider `CC12CC3CC(C)(C1)CC(OCCN)(C3)C2`, for which the survivor count by setting is: (dose: 200.0 mg/kg/injection, schedule: Q04DX002 (ip), vehicle: saline) 0 of 3; (dose: 400.0 mg/kg/injection, schedule: Q04DX002 (ip), vehicle: saline) 0 of 3.

For the molecule `CN1CN(c2ccccc2)C2(CCN(CCCC3Cc4ccccc4O3)CC2)C1=O` (stereo not given), the survivor count runs as follows: (dose: 100.0 mg/kg/injection, schedule: Q01DX001 (ip), vehicle: Klucel (hydroxypropylcellulose) (HPC)) 2 of 6; (dose: 200.0 mg/kg/injection, schedule: Q01DX001 (ip), vehicle: Klucel (hydroxypropylcellulose) (HPC)) 2 of 6; (dose: 400.0 mg/kg/injection, schedule: Q01DX001 (ip), vehicle: Klucel (hydroxypropylcellulose) (HPC)) 1 of 6.

As to `CC(c1ccccc1)C1N(c2ccccc2)CCN1c1ccccc1` (stereo not given), the survivor count under setting [9] is listed as 6 of 6, the survivor count under setting [10] was 6 of 6 and the survivor count under setting [4] was 6 of 6.

With `Cc1ccc(S(=O)(=O)F)cc1C(=O)O`, the survivor count runs as follows: (dose: 400.0 mg/kg/injection, schedule: Q01DX001 (ip), vehicle: carboxymethylcellulose (CMC)) 0 of 3 and 0 of 6; (dose: 400.0 mg/kg/injection, schedule: Q01DX009 (ip), vehicle: carboxymethylcellulose (CMC)) 0 of 3 and 0 of 6; (dose: 400.0 mg/kg/injection, schedule: Q04DX002 (ip), vehicle: gum acacia) 1 of 3.

Turning to `Nc1cc(Cl)c(S(=O)(=O)O)cc1Cl`, the survivor count (dose: 400.0 mg/kg/injection, schedule: Q01DX001 (ip), vehicle: saline) was 2 of 4.

As to `CC1OC(OC2CC(O)C3(CO)C4C(O)CC5(C)C(C6=CC(=O)OC6)CCC5(O)C4CCC3(O)C2)C(O)C(O)C1O` (stereo not given), the survivor count is, setting by setting: (dose: 10.0 mg/kg/injection, schedule: Q01DX001 (ip), vehicle: saline) 2 of 6; (dose: 20.0 mg/kg/injection, schedule: Q01DX001 (ip), vehicle: saline) 0 of 6; (dose: 25.0 mg/kg/injection, schedule: Q01DX001 (ip), vehicle: saline) 2 of 6; (dose: 40.0 mg/kg/injection, schedule: Q01DX001 (ip), vehicle: saline) 0 of 6.

For `CC(=O)NC1CCc2ccccc2-c2cccc(=O)cc21` (stereo not given), the T/C is, setting by setting: (dose: 0.2 mg/kg/injection, schedule: Q01DX009 (ip), vehicle: saline) 131 % of control; (dose: 0.39 mg/kg/injection, schedule: Q01DX009 (ip), vehicle: Klucel (hydroxypropylcellulose) (HPC)) 132 % of control; (dose: 0.39 mg/kg/injection, schedule: Q01DX009 (ip), vehicle: saline) 132 % of control. The survivor count by setting is: (dose: 1.56 mg/kg/injection, schedule: Q01DX009 (ip), vehicle: Klucel (hydroxypropylcellulose) (HPC)) 3 of 6; (dose: 3.13 mg/kg/injection, schedule: Q01DX009 (ip), vehicle: Klucel (hydroxypropylcellulose) (HPC)) 3 of 6; (dose: 6.25 mg/kg/injection, schedule: Q01DX009 (ip), vehicle: Klucel (hydroxypropylcellulose) (HPC)) 0 of 6; (dose: 12.5 mg/kg/injection, schedule: Q01DX009 (ip), vehicle: Klucel (hydroxypropylcellulose) (HPC)) 0 of 6; (dose: 25.0 mg/kg/injection, schedule: Q01DX009 (ip), vehicle: Klucel (hydroxypropylcellulose) (HPC)) 0 of 6; (dose: 50.0 mg/kg/injection, schedule: Q01DX009 (ip), vehicle: Klucel (hydroxypropylcellulose) (HPC)) 0 of 6. Moreover, the survivor count is 0 of 6 under setting [9], 0 of 6 under setting [10] and 0 of 6 under setting [4].

Turning to `CCOc1ccccc1/C=N/N=C(N)N`, the survivor count runs as follows: (dose: 250.0 mg/kg/injection, schedule: Q01DX Z (ip), vehicle: carboxymethylcellulose (CMC)) 0 of 6; (dose: 500.0 mg/kg/injection, schedule: Q01DX Z (ip), vehicle: carboxymethylcellulose (CMC)) 0 of 6.

As for `O=C1c2ccccc2-c2ncccc21`, the survivor count under setting [7] was 6 of 6.

For the molecule `O=C(NCc1ccccc1)c1ccccc1/C(=N/O)c1ccccc1`, the survivor count runs as follows: under setting [8], 6 of 6; under setting [1], 6 of 6.

With `CC(C)=CCN(CC=C(C)C)CCC(C(N)=O)c1cccc2ccccc12` (stereo not given), the survivor count is, setting by setting: under setting [5], 0 of 6; under setting [6], 1 of 6; under setting [7], 0 of 6.

For the origin of these results see PubChem BioAssay AID248 (DTP/NCI, 2004).
